Data: the supplement of paper PMC9233669
Variants at the background level are over-represented here.

What was measured:
biotinyl-Ile-oxazolone = experiment: self-aminoacylation, catalytic enhancement (BIO) (fold over background); higher = more active; k-Seq, kA / k0A0; sequences stand for … in GGGAAUGGAUCCACAUCUACGAAUUC…UUCACUGCAGACUUGACGAAGCUG
Outline: (§1)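 The uncatalyzed rate is the low-activity peak of a bimodal Gaussian fit, and catalytic enhancement is median kA divided by it. The kA values came from pseudo-first-order fits, with 1000 bootstraps, of per-sequence fraction reacted measured by streptavidin capture, triplicate qPCR and Illumina sequencing. Mutagenized RNA pools with a 21-nt variable region (0.43 μM) were reacted with each biotinyl-aminoacyl-oxazolone at 2–1250 μM in 50 μL HEPES/NaCl/KCl/MgCl2/CaCl2 buffer with 5% acetonitrile, pH 6.9–7.0, for 90 minutes at room temperature.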

biotinyl-Phe-oxazolone = experiment: self-aminoacylation, catalytic enhancement (BFO) (fold over background); higher = more active; k-Seq, kA / k0A0; sequences stand for … in GGGAAUGGAUCCACAUCUACGAAUUC…UUCACUGCAGACUUGACGAAGCUG
Outline: as §1

biotinyl-Trp-oxazolone = experiment: self-aminoacylation, catalytic enhancement (BWO) (fold over background); higher = more active; k-Seq, kA / k0A0; sequences stand for … in GGGAAUGGAUCCACAUCUACGAAUUC…UUCACUGCAGACUUGACGAAGCUG
Outline: as §1

biotinyl-Leu-oxazolone = experiment: self-aminoacylation, catalytic enhancement (BLO) (fold over background); higher = more active; k-Seq, kA / k0A0; sequences stand for … in GGGAAUGGAUCCACAUCUACGAAUUC…UUCACUGCAGACUUGACGAAGCUG
Outline: as §1

biotinyl-Met-oxazolone = experiment: self-aminoacylation, catalytic enhancement (BMO) (fold over background); higher = more active; k-Seq, kA / k0A0; sequences stand for … in GGGAAUGGAUCCACAUCUACGAAUUC…UUCACUGCAGACUUGACGAAGCUG
Outline: as §1

biotinyl-Val-oxazolone = experiment: self-aminoacylation, catalytic enhancement (BVO) (fold over background); higher = more active; k-Seq, kA / k0A0; sequences stand for … in GGGAAUGGAUCCACAUCUACGAAUUC…UUCACUGCAGACUUGACGAAGCUG
Outline: as §1

Row | Sequence | self-aminoacylation (biotinyl-Ile-oxazolone) | self-aminoacylation (biotinyl-Phe-oxazolone) | self-aminoacylation (biotinyl-Trp-oxazolone) | self-aminoacylation (biotinyl-Leu-oxazolone) | self-aminoacylation (biotinyl-Met-oxazolone) | self-aminoacylation (biotinyl-Val-oxazolone)
1 | AUUCACCUAUGUCAUCGGGAG [Fam2.2 aminoacylation ribozyme variant] | 0.962 | 1.06 | 0.79 | 0.996 | 1.06 | 0.981
2 | AUUCACCUCGGUCAUCGGCUG [Fam2.2 aminoacylation ribozyme variant] | 1.87 | 8.33 | 2.02 | 1.96 | 1.75 | 2.65
3 | AUUCACCUCGUUCAUCGGGUG [Fam2.2 aminoacylation ribozyme variant] | 2.93 | 26.3 | 5 | 5.48 | 4.1 | 3.3
4 | AUUCACCUGGGUCGUCGGGUG [Fam2.2 aminoacylation ribozyme variant] | 1.93 | 6.66 | 2.11 | 2.3 | 2.46 | 2.48
5 | AUUCACGUAGGUCAUCGGAUG [Fam2.2 aminoacylation ribozyme variant] | 1.02 | 0.395 | 0.8 | 1.02 | 1.05 | 1.1
6 | AUUCACGUAGGUUAUCGGGUG [Fam2.2 aminoacylation ribozyme variant] | 3.34 | 38.9 | 4.68 | 4.91 | 5.38 | 5.09
7 | AUUCACUUAGGUCAUCGGGAG [Fam2.2 aminoacylation ribozyme variant] | 1.02 | 0.746 | 0.745 | 1.22 | 1.1 | 1.11
8 | AUUCACUUAGUUCAUCGGGUG [Fam2.2 aminoacylation ribozyme variant] | 2.18 | 11.1 | 3.28 | 2.93 | 2.58 | 1.88
9 | AUUCAUCUUGGUCAUCGGGUG [Fam2.2 aminoacylation ribozyme variant] | 4.97 | 50.1 | 7.39 | 9.58 | 7.46 | 4.56
10 | AUUCCCCUAGGACAUCGGGUG [Fam2.2 aminoacylation ribozyme variant] | 6.12 | 44.8 | 8.25 | 9.47 | 7.14 | 6.82
11 | AUUCCCCUAGGUUAUCGGGUG [Fam2.2 aminoacylation ribozyme variant] | 12.9 | 187 | 20 | 27.6 | 20 | 13.3
12 | AUUCCCCUGGUCAUCAAGUGA [Fam2.1 aminoacylation ribozyme variant] | 1.58 | 3.87 | 2.34 | 1.97 | 2.36 | 1.99
13 | AUUCCCCUGGUCAUCGCGUGA [Fam2.1 aminoacylation ribozyme variant] | 12.2 | 213 | 26.8 | 28.2 | 22.1 | 15
14 | AUUCUACUAGGUCAUCGGGUG [Fam2.2 aminoacylation ribozyme variant] | 3.7 | 41.7 | 5.93 | 7.31 | 5.82 | 3.87
15 | AUUGACCUAGGUCAUCGGAUG [Fam2.2 aminoacylation ribozyme variant] | 1.47 | 1.3 | 1.58 | 1.24 | 1.39 | 1.31
16 | AUUUACCUAGGUCAUCGGGAG [Fam2.2 aminoacylation ribozyme variant] | 1.15 | 0.695 | 0.947 | 1.39 | 1.11 | 1.29
17 | AUUUACCUAGGUCAUCGGGUA [Fam2.2 aminoacylation ribozyme variant] | 14.1 | 218 | 22.2 | 39.9 | 29.5 | 12.3
18 | AUUUCCCUGCUCAUCGAGUGA [Fam2.1 aminoacylation ribozyme variant] | 1.47 | 1.67 | 1.15 | 1.6 | 1.74 | 1.46
19 | AUUUCCCUGGUCAUAGAGUGA [Fam2.1 aminoacylation ribozyme variant] | 4.67 | 61.5 | 12.2 | 9.78 | 9.7 | 4.88
20 | AUUUCCCUGGUCAUCGAGUUA [Fam2.1 aminoacylation ribozyme variant] | 1.49 | 2.12 | 1.47 | 1.87 | 1.63 | 1.53
21 | CAACACUUCUAGCAAUCGGUC [Fam1B.1 aminoacylation ribozyme variant] | 0.886 | 0.788 | 0.715 | 0.739 | 0.724 | 0.825
22 | CAACGCUUCAAGCAAUCGGUC [Fam1B.1 aminoacylation ribozyme variant] | 1.26 | 58.6 | 33.7 | 2.08 | 1.72 | 1.4
23 | CAACUUCAAACAAUGGGUCUG [Fam1A.1 aminoacylation ribozyme variant] | 1.21 | 2.23 | 0.937 | 1.06 | 0.966 | 0.929
24 | CAAGACUUCAAGCAAUCGGUC [Fam1B.1 aminoacylation ribozyme variant] | 1.11 | 15.3 | 9.73 | 1.54 | 1.25 | 1.12
25 | CAGGUUGCUAAUAGUCGCAAG [Fam3.1 aminoacylation ribozyme variant] | 1.11 | 0.778 | 0.731 | 0.879 | 0.75 | 1.01
26 | CAGUUUGCUAAUAGUCGCAAU [Fam3.1 aminoacylation ribozyme variant] | 2.06 | 2 | 1.47 | 1.71 | 1.38 | 1.67

Row | Sequence | self-aminoacylation (biotinyl-Ile-oxazolone) | self-aminoacylation (biotinyl-Phe-oxazolone) | self-aminoacylation (biotinyl-Trp-oxazolone) | self-aminoacylation (biotinyl-Leu-oxazolone) | self-aminoacylation (biotinyl-Met-oxazolone) | self-aminoacylation (biotinyl-Val-oxazolone)
27 | CAGUUUGCUACUAGUCGCAAG [Fam3.1 aminoacylation ribozyme variant] | 1.37 | 1.71 | 1.02 | 1.26 | 1.19 | 1.2
28 | CCAAACUACAAGCAAUCGGUC [Fam1B.1 aminoacylation ribozyme variant] | 0.906 | 1.02 | 0.732 | 0.903 | 0.745 | 1.12
29 | CCAAACUUCAAGCGAUCGGUC [Fam1B.1 aminoacylation ribozyme variant] | 1.1 | 1.09 | 1.25 | 1.32 | 1.11 | 1.35
30 | CCAAACUUCAAGUAAUCGGUC [Fam1B.1 aminoacylation ribozyme variant] | 0.968 | 10.5 | 7.85 | 1.14 | 0.787 | 0.974
31 | CCAAACUUCACGCAAUCGGUC [Fam1B.1 aminoacylation ribozyme variant] | 1.41 | 0.813 | 1.08 | 1.49 | 1.39 | 1.74
32 | CCAAAUUUCAAGCAAUCGGUC [Fam1B.1 aminoacylation ribozyme variant] | 1.25 | 1.34 | 1.06 | 1.08 | 1.14 | 1.28
33 | CCACAAUUCAAGCAAUCGUUC [Fam1B.1 aminoacylation ribozyme variant] | 0.909 | 1.06 | 0.719 | 0.713 | 0.815 | 0.864
34 | CCACAAUUCAGGCAAUCGGUC [Fam1B.1 aminoacylation ribozyme variant] | 1.47 | 1.29 | 0.94 | 1.46 | 1.37 | 1.42
35 | CCACACACCAAGCAAUCGGUC [Fam1B.1 aminoacylation ribozyme variant] | 1.34 | 1.09 | 0.657 | 1.1 | 0.882 | 1.65
36 | CCACACAUCAAGCAAUCGGUC [Fam1B.1 aminoacylation ribozyme variant] | 0.82 | 1.22 | 0.764 | 0.669 | 0.673 | 0.933
37 | CCACACAUCAAGCAAUCGGUU [Fam1B.1 aminoacylation ribozyme variant] | 1.7 | 0.745 | 0.785 | 1.23 | 0.885 | 1.59
38 | CCACACAUCAAGCAAUCUGUC [Fam1B.1 aminoacylation ribozyme variant] | 0.521 | 0.973 | 0.265 | 0.411 | 0.446 | 0.682
39 | CCACACAUGAAGCAAUCGGUC [Fam1B.1 aminoacylation ribozyme variant] | 0.83 | 0.955 | 0.778 | 0.754 | 0.614 | 0.957
40 | CCACACCUCAAGAAAUCGGUC [Fam1B.1 aminoacylation ribozyme variant] | 1.03 | 1.7 | 1.29 | 1.19 | 0.899 | 1.03
41 | CCACACCUCAAGCAACCGGUC [Fam1B.1 aminoacylation ribozyme variant] | 1.45 | 0.96 | 1.41 | 1.38 | 1.12 | 1.82
42 | CCACACCUGAAGCAAUCGGUC [Fam1B.1 aminoacylation ribozyme variant] | 1.01 | 0.952 | 0.911 | 0.946 | 0.903 | 1.18
43 | CCACACGGCAAGCAAUCGGUC [Fam1B.1 aminoacylation ribozyme variant] | 1 | 0.671 | 1.16 | 0.971 | 0.987 | 1.55
44 | CCACACGUCAAGCAAUCAGUC [Fam1B.1 aminoacylation ribozyme variant] | 0.647 | 0.738 | 0.482 | 0.713 | 0.665 | 0.88
45 | CCACACGUCAAGCAAUUGGUC [Fam1B.1 aminoacylation ribozyme variant] | 0.961 | 0.752 | 1.05 | 0.951 | 0.989 | 1.07
46 | CCACACUACAAGCAAGCGGUC [Fam1B.1 aminoacylation ribozyme variant] | 1.16 | 1.08 | 0.517 | 0.88 | 0.617 | 1.08
47 | CCACACUACAAGCAAUCCGUC [Fam1B.1 aminoacylation ribozyme variant] | 1.15 | 0.81 | 0.521 | 0.903 | 0.803 | 0.96
48 | CCACACUACAAGCAAUCGGUA [Fam1B.1 aminoacylation ribozyme variant] | 0.825 | 0.854 | 1.5 | 0.81 | 0.696 | 0.88
49 | CCACACUACAAGCAAUCUGUC [Fam1B.1 aminoacylation ribozyme variant] | 0.496 | 0.747 | 0.353 | 0.49 | 0.271 | 0.566
50 | CCACACUACAAGCUAUCGGUC [Fam1B.1 aminoacylation ribozyme variant] | 0.862 | 0.901 | 0.608 | 0.768 | 0.737 | 0.954
51 | CCACACUACAAUCAAUCGGUC [Fam1B.1 aminoacylation ribozyme variant] | 0.797 | 1.18 | 0.811 | 0.688 | 0.663 | 0.877
